In all, about 31,000 sequences went through this assay and about 1,400 (4.5%) were called active.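 The calls were made as follows: active = median seed-adjusted z-score above 1 or below -1; inactive = the rest.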 Some of the results follow.
Test: Novel Modifiers of Survival Motor Neuron (SMN) Protein: Gene Identification via Genome-wide siRNA Screen;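 also: luminescence tracks full-length SMN protein made from the SMN2 reporter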
Details: HEK293T SMN2-luciferase reporter, siRNA knockdown, 72 h; actives lie on both sides
Outline: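 Each of three siRNAs per gene is reverse-transfected (1 pmol) into reporter HEK293T cells whose luciferase output tracks SMN protein level. After 72 h culture, ONE-Glo luminescence is control-normalized, log10-transformed and MAD-standardized; Common Seed Analysis deprioritizes seed-driven hits.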

| Sequence | median seed-adjusted z-score |
| --- | --- |
| CUAUAGCCCUCAUAACUAATT against ARSB | inactive: 0.914 |
| CCGUAUUUCUAGUUCCCUUTT against ZNF442 | active: 1.06 |
| CCUUCAUUGAGGACCUGAATT against PTP4A3 | inactive: 0.354 |
| CUCAAUGAGUGGUACGUUUTT against ZIC5 | inactive: 0 |
| CCGAGUGGGUGAGCACAAATT against NAGS | inactive: 0.0484 |
| GGACUUGGUUUUUCGUACATT against MED14 | active: -3.22 |
| GAUCAGUCGUGAGACGUGUTT against PRSS8 | inactive: -0.275 |
| GCACCACACUGCGAGAUGATT against TAPBP | inactive: -0.786 |
| GGCACUAUUUCCAAUGGAATT against ADAMTS12 | inactive: -0.0721 |
| GCACGAGUACUACAGAGGATT against POFUT2 | inactive: -0.86 |
| GGGUAUCACCUCACGCUUATT against ABCA12 | inactive: 0.0759 |
| GGACUGCUAUUUAAAUUCUTT against SLC7A1 | inactive: 0.445 |
| GCAUCGUGUUUACCAUCGATT against CDH20 | inactive: -0.397 |
| GCAAGGCUUUUGACGUAGATT against MAP3K6 | inactive: 0 |
| CCAGCAGACUUGAGUCUGATT against GNB3 | inactive: -0.373 |
| GCAUCUCUAUUGUAGCCCUTT against GHRHR | inactive: 0 |
| UGAGUCACGUGAUAGAUUATT against ZNF587 | inactive: -0.178 |
| AGAUGCUUGUUAUACCUUUTT against KRT38 | inactive: 0.0884 |
| CCACUAUCCUGAGAAGGAATT against IYD | inactive: -0.572 |
| GCUGGUACACUGUAUCUCATT against MTMR14 | inactive: 0.131 |
| GCAACGACAAGGUGAUUAATT against ALDH3A1 | inactive: -0.486 |
| GGCUGUACAUCGGCAUCAATT against ABCD4 | inactive: -0.114 |
| CAGUGAUGGUGAUUCAGAUTT against PHF10 | inactive: -0.199 |

| Sequence | median seed-adjusted z-score |
| --- | --- |
| CUCUAAUGUCUGAUAUUCATT against TDRD6 | inactive: 0 |
| CAGUGUAAUUAGGCAACUATT against MYO3A | inactive: 0.0776 |
| CACUGUUCAUUGUGACUAUTT against TAF1L | inactive: 0.289 |
| CGAUGUCAGUGACACUUGATT against INPP4B | inactive: 0.0722 |
| GUGUGAGGGUUGAACUCAATT against EGLN1 | active: 2.05 |
| AAAAUUAUCUAAGCAGUAUTT against TTC7A | inactive: -0.303 |
| AGUCAGGUACGAAGAUGAATT against KRT75 | inactive: 0.0773 |
| GGAGCACAGUCGGAUCAAATT against ALDH4A1 | inactive: 0.0362 |
| CGACCUUGAUUGAGAUCUUTT against KCNJ15 | inactive: 0.0332 |
| GCUUCCUCUUGGACCUCAATT against SLC12A8 | inactive: 0.113 |
| GAGCAGAAAUUAUUCGUUATT against PGDS | inactive: 0.02 |
| GGUGAUCAUUCCAAGAAGATT against ISL2 | inactive: 0.392 |
| GCUCUACGCAAGGAGAUCATT against BATF | inactive: -0.0501 |
| CCACUGAUCCUUCCCGAUATT against ENO2 | inactive: 0.418 |
| UCUUAGAUGUCAAGCUGAATT against RNF7 | active: -1.18 |
| GACCUGACCUGAAGACGAATT against GALNT11 | inactive: -0.259 |
| GCCCUUCCCUCUCAUCACATT against GPR182 | inactive: -0.136 |
| GAGUUGCUAGUAAAGCGAATT against MCCC1 | inactive: 0.298 |
| GGUGGAUCAAUGAUACAGATT against DPP10 | inactive: -0.0478 |
| GCUAAGUACAAGGACAGUATT against STK31 | inactive: 0.699 |
| GAGACAAAUUUGGGCCUUATT against HSF4 | inactive: 0.926 |
| GGUGGAGUCGGAAAAUCUATT against NUBPL | inactive: 0.105 |
| CGGAGUUCAUCAAACAGAUTT against HHAT | inactive: 0.585 |

In another format: entries from further up
Sequence	median seed-adjusted z-score
CUCUAAUGUCUGAUAUUCATT against TDRD6	inactive: 0
CAGUGUAAUUAGGCAACUATT against MYO3A	inactive: 0.0776
CACUGUUCAUUGUGACUAUTT against TAF1L	inactive: 0.289
CGAUGUCAGUGACACUUGATT against INPP4B	inactive: 0.0722
GUGUGAGGGUUGAACUCAATT against EGLN1	active: 2.05
AAAAUUAUCUAAGCAGUAUTT against TTC7A	inactive: -0.303
AGUCAGGUACGAAGAUGAATT against KRT75	inactive: 0.0773
GGAGCACAGUCGGAUCAAATT against ALDH4A1	inactive: 0.0362
CGACCUUGAUUGAGAUCUUTT against KCNJ15	inactive: 0.0332
GCUUCCUCUUGGACCUCAATT against SLC12A8	inactive: 0.113
GAGCAGAAAUUAUUCGUUATT against PGDS	inactive: 0.02
GGUGAUCAUUCCAAGAAGATT against ISL2	inactive: 0.392
GCUCUACGCAAGGAGAUCATT against BATF	inactive: -0.0501
CCACUGAUCCUUCCCGAUATT against ENO2	inactive: 0.418
UCUUAGAUGUCAAGCUGAATT against RNF7	active: -1.18
GACCUGACCUGAAGACGAATT against GALNT11	inactive: -0.259
GCCCUUCCCUCUCAUCACATT against GPR182	inactive: -0.136
GAGUUGCUAGUAAAGCGAATT against MCCC1	inactive: 0.298
GGUGGAUCAAUGAUACAGATT against DPP10	inactive: -0.0478

Further results:

| Sequence | median seed-adjusted z-score |
| --- | --- |
| CGGGUACAAGGAUUGGUUUTT against ROM1 | inactive: 0.41 |
| CCUCAGCUUUUACAGCAAATT against RAD23A | active: -1.13 |
| CCGGAGAACCUGAAACUCATT against CAB39L | inactive: 0 |
| CACAUUCGUCCAAAACUUATT against NEUROD6 | inactive: -0.261 |
| CACCCUAACACUUAACAUATT against PTPN20B | inactive: -0.62 |
| GAGAAGAUGUGGACAUACATT against GRIA1 | inactive: 0.927 |
| CCCUCGAUGGUGUCAAGUATT against NFIL3 | inactive: 0.4 |
| GGCAACCGGUGACCAAAAATT against GRK5 | inactive: -0.377 |
| GCUCAUCUGGAUAACCUGATT against ZNF513 | inactive: -0.0616 |
| GGCUUUCAACAGUAGAUCATT against ZNF311 | inactive: 0.196 |
| CCAACUAUCAGUGACCGUATT against CYP17A1 | active: -1.39 |
| CCCAGGAACUGCUAACGAATT against SETMAR | inactive: 0.191 |
| CAGUCACGCUGUCUAAUGATT against PPM2C | inactive: 0.518 |
| GUCGAAUUCUUACGGAUAATT against FAM47B | inactive: -0.0631 |
| GAUCUAAAGUGAAAGUAUUTT against GKAP1 | inactive: -0.119 |
| GCGAUGCUCUUGACUCCUUTT against ENPP6 | inactive: -0.548 |
| GGGACCAUCUGGAUUCAUATT against GPR107 | inactive: 0 |
| CGAAUAUGAUCCAACAAUATT against KRAS | inactive: -0.0469 |
| CUAUGUCUAUCAGAAUGAATT against AKR1B10 | inactive: 0 |
| CGAUAUUAAGUUGAACGAATT against KLHL7 | inactive: -0.567 |
| GCGCAACAGAUAAUCCUAUTT against HAL | inactive: 0 |
| AAUUCCUAGUUGAAACUUUTT against QDPR | inactive: -0.734 |
| GCAGAACAACGAGCACAGATT against CTSW | inactive: -0.342 |

Source: PubChem BioAssay AID1347426 (Functional Genomics Laboratory (NCATS/FGL), 2020)
